{"source": "PubChem BioAssay AID246", "about": "(DTP/NCI, 2004)", "tested_on": "BDF1 mice, P1081 chloroleukemia ip, survival T/C", "assay": "NCI In Vivo Anticancer Drug Screen. Data for tumor model P1081 Chloroleukemia (intraperitoneal) in B6D2F1 (BDF1) mice", "details": "T/C endpoint: mean survival time, higher T/C = longer survival", "experimental": "The antitumor activity of compounds was measured in mice bearing transplantable tumors. Survival or tumor size were measured and the results are expressed as the measurement made in the treated group (T) divided by the measurement made in the vehicle treated control group (C). The tumor model used in this assay is P1081 Chloroleukemia (intraperitoneal) in B6D2F1 (BDF1) mice", "key": {"[1]": {"details": "dose: 3.12 mg/kg/injection, schedule: Q01DX Z (ip), vehicle: water"}, "[2]": {"details": "dose: 6.25 mg/kg/injection, schedule: Q01DX Z (ip), vehicle: water"}, "[3]": {"details": "dose: 2.0 mg/kg/injection, schedule: Q01DX010 (ip), vehicle: saline"}, "[4]": {"details": "dose: 4.0 mg/kg/injection, schedule: Q01DX Z (ip), vehicle: carboxymethylcellulose (CMC)"}}, "note": "The list is a part of this screen's results and no random one: its compounds were picked by chemical class. Not every dose and run of a compound is shown. T/C gives the treated animals as a percentage of the vehicle group. Some entries give survivors of the animals treated and no T/C: the source files T/C as zero there, which appears to mark a toxic dose or a test without result, not a measured value. Some doses without a T/C left all or most animals alive at the check, yet need not have been tolerated: survival well below the control is almost never listed, so the zero probably covers shortened survival too. Survivors were counted at the toxicity check, usually on the fifth day, unless a day is given; later deaths do not show. Schedules are NCI's codes, taken here to give the interval after Q, in days (D) or hours (H), and the number of doses after X. Some entries hold several experiments; the values are given in rising order. Some schedule codes hold Z or #, which are not explained here. For survival time, this PubChem deposit counts one and a half times the control or more as active, and values a quarter to a half above the control carry no call in these data; other NCI protocols may use other cut-offs. Some T/C values carry the count of animals alive at the toxicity check (mostly the fifth day); where neither a count nor a note follows, no animal had died by that day."}
{"smiles": "NC1CCCCC1.O=P(O)(N(CCCl)CCCl)N1CC1", "values": [{"measurement": "T/C", "setting": "dose: 1.25 mg/kg/injection, schedule: Q01DX010 (ip), vehicle: saline", "value": "100 % of control"}, {"measurement": "T/C", "setting": "dose: 2.5 mg/kg/injection, schedule: Q01DX010 (ip), vehicle: saline", "value": "104 and 109 % of control"}, {"measurement": "T/C", "setting": "dose: 5.0 mg/kg/injection, schedule: Q01DX010 (ip), vehicle: saline", "value": "122 and 159 % of control"}, {"measurement": "T/C", "setting": "dose: 10.0 mg/kg/injection, schedule: Q01DX010 (ip), vehicle: saline", "value": "186 and 300 % of control"}, {"measurement": "T/C", "setting": "dose: 20.0 mg/kg/injection, schedule: Q01DX010 (ip), vehicle: saline", "value": "100 % of control"}]}
{"smiles": "CC[C@H](C)[C@@H]1NC(=O)/C(=C(\\C)O)C1=O", "values": [{"measurement": "T/C", "setting": "dose: 1.6 mg/kg/injection, schedule: Q01DX Z (ip), vehicle: water", "value": "87 and 101 % of control"}, {"measurement": "T/C", "setting": "[1]", "value": "97 % of control"}, {"measurement": "survivor count", "setting": "[1]", "value": "6 of 6"}, {"measurement": "T/C", "setting": "[2]", "value": "101 and 113 % of control"}, {"measurement": "survivor count", "setting": "[2]", "value": "6 of 6"}, {"measurement": "T/C", "setting": "dose: 12.5 mg/kg/injection, schedule: Q01DX Z (ip), vehicle: water", "value": "98 and 105 % of control"}, {"measurement": "T/C", "setting": "dose: 25.0 mg/kg/injection, schedule: Q01DX Z (ip), vehicle: water", "value": "106 % of control"}, {"measurement": "survivor count", "setting": "dose: 50.0 mg/kg/injection, schedule: Q01DX Z (ip), vehicle: water", "value": "4 of 6"}]}
{"smiles": "Cc1[nH]c(=O)[nH]c(=O)c1N(CCCl)CCCl", "values": [{"measurement": "T/C", "setting": "dose: 0.25 mg/kg/injection, schedule: Q01DX Z (ip), vehicle: carboxymethylcellulose (CMC)", "value": "90 % of control"}, {"measurement": "T/C", "setting": "dose: 0.5 mg/kg/injection, schedule: Q01DX010 (ip), vehicle: saline", "value": "140 and 150 % of control"}, {"measurement": "T/C", "setting": "dose: 0.5 mg/kg/injection, schedule: Q01DX Z (ip), vehicle: carboxymethylcellulose (CMC)", "value": "90 % of control"}, {"measurement": "T/C", "setting": "dose: 1.0 mg/kg/injection, schedule: Q01DX010 (ip), vehicle: saline", "value": "105 and 211 % of control"}, {"measurement": "T/C", "setting": "dose: 1.0 mg/kg/injection, schedule: Q01DX Z (ip), vehicle: carboxymethylcellulose (CMC)", "value": "96 % of control"}, {"measurement": "T/C", "setting": "[3]", "value": "333 % of control"}, {"measurement": "survivor count", "setting": "[3]", "value": "6 of 6"}, {"measurement": "T/C", "setting": "dose: 2.0 mg/kg/injection, schedule: Q01DX Z (ip), vehicle: carboxymethylcellulose (CMC)", "value": "92 % of control"}, {"measurement": "survivor count", "setting": "dose: 4.0 mg/kg/injection, schedule: Q01DX010 (ip), vehicle: saline", "value": "5 of 6 and 6 of 6"}, {"measurement": "T/C", "setting": "[4]", "value": "112 % of control"}, {"measurement": "survivor count", "setting": "[4]", "value": "6 of 6"}, {"measurement": "survivor count", "setting": "dose: 8.0 mg/kg/injection, schedule: Q01DX Z (ip), vehicle: carboxymethylcellulose (CMC)", "value": "3 of 6 and 6 of 6"}, {"measurement": "survivor count", "setting": "dose: 16.0 mg/kg/injection, schedule: Q01DX Z (ip), vehicle: carboxymethylcellulose (CMC)", "value": "3 of 6 and 6 of 6"}]}
{"smiles": "CN(N=O)C(=N)N[N+](=O)[O-]", "values": [{"measurement": "T/C", "setting": "dose: 8.0 mg/kg/injection, schedule: Q01DX010 (ip), vehicle: saline", "value": "122 and 155 % of control"}, {"measurement": "T/C", "setting": "dose: 9.4 mg/kg/injection, schedule: Q01DX Z (ip), vehicle: carboxymethylcellulose (CMC)", "value": "96 % of control"}, {"measurement": "T/C", "setting": "dose: 16.0 mg/kg/injection, schedule: Q01DX010 (ip), vehicle: saline", "value": "105 and 144 % of control"}, {"measurement": "T/C", "setting": "dose: 18.75 mg/kg/injection, schedule: Q01DX Z (ip), vehicle: carboxymethylcellulose (CMC)", "value": "108 % of control [5 of 6 alive]"}, {"measurement": "T/C", "setting": "dose: 32.0 mg/kg/injection, schedule: Q01DX010 (ip), vehicle: saline", "value": "88 and 94 % of control"}, {"measurement": "survivor count", "setting": "dose: 37.5 mg/kg/injection, schedule: Q01DX Z (ip), vehicle: carboxymethylcellulose (CMC)", "value": "4 of 6"}, {"measurement": "survivor count", "setting": "dose: 64.0 mg/kg/injection, schedule: Q01DX010 (ip), vehicle: saline", "value": "5 of 6 and 6 of 6"}, {"measurement": "survivor count", "setting": "dose: 75.0 mg/kg/injection, schedule: Q01DX Z (ip), vehicle: carboxymethylcellulose (CMC)", "value": "2 of 6"}]}
